{
  "sequences": {"note": "Sequences of proteins named here, by UniProt entry; tags and fusion partners are left off.", "UniProt P11142": "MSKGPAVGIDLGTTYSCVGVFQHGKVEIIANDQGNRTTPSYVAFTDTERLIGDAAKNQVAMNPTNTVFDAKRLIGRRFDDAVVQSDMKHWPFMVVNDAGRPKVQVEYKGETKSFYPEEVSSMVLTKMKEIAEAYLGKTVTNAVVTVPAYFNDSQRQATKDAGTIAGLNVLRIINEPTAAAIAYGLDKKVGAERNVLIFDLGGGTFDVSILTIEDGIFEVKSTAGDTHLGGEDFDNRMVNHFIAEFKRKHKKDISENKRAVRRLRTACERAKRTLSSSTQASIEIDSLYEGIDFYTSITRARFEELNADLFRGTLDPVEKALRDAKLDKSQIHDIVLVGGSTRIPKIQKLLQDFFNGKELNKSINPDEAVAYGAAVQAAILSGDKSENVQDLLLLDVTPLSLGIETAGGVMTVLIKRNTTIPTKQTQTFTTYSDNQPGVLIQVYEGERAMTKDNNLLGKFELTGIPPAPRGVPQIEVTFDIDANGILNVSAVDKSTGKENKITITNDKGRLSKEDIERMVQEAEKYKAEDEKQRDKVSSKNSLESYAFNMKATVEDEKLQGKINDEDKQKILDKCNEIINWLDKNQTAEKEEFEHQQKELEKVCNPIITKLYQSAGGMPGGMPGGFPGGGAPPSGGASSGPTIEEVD"},
  "source": "paper PMC9359432",
  "biological_target": "T1, CCDC102B-Flag (coiled-coil domain containing 102B with C-terminal 3×FLAG tag) (human (cDNA of MDA-MB-231)) (UniProt Q68D86)",
  "T1 sequence": "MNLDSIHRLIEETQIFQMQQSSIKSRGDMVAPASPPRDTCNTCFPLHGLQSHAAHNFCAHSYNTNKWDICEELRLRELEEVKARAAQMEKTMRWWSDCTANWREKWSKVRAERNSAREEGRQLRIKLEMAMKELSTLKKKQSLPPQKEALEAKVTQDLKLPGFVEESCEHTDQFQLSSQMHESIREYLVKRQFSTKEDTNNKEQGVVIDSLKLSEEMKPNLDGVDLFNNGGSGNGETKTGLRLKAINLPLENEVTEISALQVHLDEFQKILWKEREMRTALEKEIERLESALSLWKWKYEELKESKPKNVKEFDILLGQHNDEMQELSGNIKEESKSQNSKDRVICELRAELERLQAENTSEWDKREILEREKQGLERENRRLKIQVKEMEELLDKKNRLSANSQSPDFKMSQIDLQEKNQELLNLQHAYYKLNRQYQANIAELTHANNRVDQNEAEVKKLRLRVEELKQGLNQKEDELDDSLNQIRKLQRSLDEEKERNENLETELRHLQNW",
  "assay": "co-IP; MDA-MB-231 cells stably overexpressing CCDC102B-Flag or control; lysates in IP lysis buffer on magnetic beads overnight at 4°C, western blot; cells in complete or serum-free medium for 24 h, with or without RACK1 overexpression",
  "note": "These are yes or no findings as the source states them, for the method shown. In cells and extracts the contact can be indirect. Some binding calls cover weakened binding; strength is not graded here. Tags and fused reporters may be left off the sequences shown.",
  "data": [
    {"substance": "HSPA8 (from UniProt P11142 1-646)", "values": [
      {"measurement": "binding", "result": "binds"}
    ]}
  ]
}
